The text below walks through data of publication PMC3215728.

Chains of the proteins cited; added tags and fusions are not shown.
UniProt O75923: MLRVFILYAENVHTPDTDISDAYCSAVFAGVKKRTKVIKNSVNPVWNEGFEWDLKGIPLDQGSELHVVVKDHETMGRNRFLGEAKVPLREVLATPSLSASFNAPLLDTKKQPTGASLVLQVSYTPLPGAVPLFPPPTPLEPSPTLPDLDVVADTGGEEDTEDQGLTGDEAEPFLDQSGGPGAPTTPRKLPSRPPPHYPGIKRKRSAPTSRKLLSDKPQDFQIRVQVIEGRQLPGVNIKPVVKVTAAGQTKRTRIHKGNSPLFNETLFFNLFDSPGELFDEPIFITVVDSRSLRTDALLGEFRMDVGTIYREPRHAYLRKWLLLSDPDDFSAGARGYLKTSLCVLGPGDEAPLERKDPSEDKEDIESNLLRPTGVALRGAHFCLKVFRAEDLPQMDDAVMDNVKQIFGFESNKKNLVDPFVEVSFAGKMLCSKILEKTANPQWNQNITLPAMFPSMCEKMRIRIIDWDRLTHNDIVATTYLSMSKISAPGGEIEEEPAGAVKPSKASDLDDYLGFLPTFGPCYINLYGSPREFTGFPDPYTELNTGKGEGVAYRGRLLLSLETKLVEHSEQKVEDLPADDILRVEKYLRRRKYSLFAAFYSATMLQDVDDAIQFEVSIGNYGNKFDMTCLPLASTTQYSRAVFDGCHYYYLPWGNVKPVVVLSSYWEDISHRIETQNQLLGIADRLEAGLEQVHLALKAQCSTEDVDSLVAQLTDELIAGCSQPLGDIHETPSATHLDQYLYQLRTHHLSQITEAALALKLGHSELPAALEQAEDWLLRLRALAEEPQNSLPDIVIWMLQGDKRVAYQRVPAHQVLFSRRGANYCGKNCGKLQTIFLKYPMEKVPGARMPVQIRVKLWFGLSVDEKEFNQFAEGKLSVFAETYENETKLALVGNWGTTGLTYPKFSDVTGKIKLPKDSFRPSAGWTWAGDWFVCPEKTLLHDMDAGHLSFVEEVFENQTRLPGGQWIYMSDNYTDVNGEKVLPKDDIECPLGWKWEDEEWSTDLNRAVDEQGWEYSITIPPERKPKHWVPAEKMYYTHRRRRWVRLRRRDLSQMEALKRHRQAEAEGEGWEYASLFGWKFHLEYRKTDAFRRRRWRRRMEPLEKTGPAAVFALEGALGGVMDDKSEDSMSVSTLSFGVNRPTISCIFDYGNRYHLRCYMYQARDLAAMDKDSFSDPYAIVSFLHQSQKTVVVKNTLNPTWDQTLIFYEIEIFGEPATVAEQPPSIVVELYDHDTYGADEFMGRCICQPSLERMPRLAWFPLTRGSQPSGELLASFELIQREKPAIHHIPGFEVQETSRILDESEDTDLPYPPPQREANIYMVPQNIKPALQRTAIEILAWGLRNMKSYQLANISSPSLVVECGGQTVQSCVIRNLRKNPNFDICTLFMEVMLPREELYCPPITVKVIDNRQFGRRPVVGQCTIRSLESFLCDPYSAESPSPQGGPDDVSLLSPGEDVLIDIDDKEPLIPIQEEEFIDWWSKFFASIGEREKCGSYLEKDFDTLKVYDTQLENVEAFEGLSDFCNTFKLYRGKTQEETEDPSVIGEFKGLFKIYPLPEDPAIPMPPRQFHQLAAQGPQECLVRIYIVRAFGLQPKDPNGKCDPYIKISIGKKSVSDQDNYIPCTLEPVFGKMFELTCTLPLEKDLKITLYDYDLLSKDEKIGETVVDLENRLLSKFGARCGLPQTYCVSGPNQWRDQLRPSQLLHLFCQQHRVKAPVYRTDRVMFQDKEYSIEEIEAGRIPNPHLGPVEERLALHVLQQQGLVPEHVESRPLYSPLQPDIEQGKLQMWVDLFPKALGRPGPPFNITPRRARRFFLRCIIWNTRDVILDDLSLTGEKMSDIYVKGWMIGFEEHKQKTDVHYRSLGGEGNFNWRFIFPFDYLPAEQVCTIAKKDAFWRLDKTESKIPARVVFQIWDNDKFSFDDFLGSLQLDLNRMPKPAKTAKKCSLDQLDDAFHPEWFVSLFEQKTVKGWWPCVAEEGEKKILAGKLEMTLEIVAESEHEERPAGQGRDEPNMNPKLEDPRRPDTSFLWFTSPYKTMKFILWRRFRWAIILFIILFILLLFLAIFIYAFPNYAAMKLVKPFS

The target in experiment [1] is CFP-dysferlin / YFP-dysferlin (full-length human dysferlin) expressed in HEK293 cells (human) (UniProt O75923). The experiment is described as follows: fluorescence correlation spectroscopy (FCS); YFP-dysferlin diffusing in detergent solution, SDS.
Experiment [2] has the same target. The experiment is described as follows: photon counting histogram (PCH); detergent solubilized YFP-dysferlin in SDS; molecular brightness against YFP.

No constants are given. Whether binding was seen depends on the method and setting.

On to “CFP-dysferlin / YFP-dysferlin (full-length human dysferlin) expressed in HEK293 cells (from UniProt O75923 1-2080)”, for which the binding entry in experiment [1] and in experiment [2] was “no binding (condition: in SDS)” each time.
